Measurements reported in PubChem BioAssay AID248 (DTP/NCI, 2004).
The list does not hold the whole screen: it gathers tests that were run many times, whatever their T/C, doses with no T/C, and many T/C values between a quarter and a half above the control. Further doses and runs are listed elsewhere. T/C gives the treated animals as a percentage of the vehicle group. Some entries give survivors of the animals treated and no T/C: the source holds a T/C of zero for them, seemingly a mark for toxic or unscored doses. Some doses without a T/C left all or most animals alive at the check, yet need not have been tolerated: the source hardly ever lists a survival T/C far under the control, and the zero likely stands for such cases as well. Counts of survivors are from the toxicity check (mostly the fifth day) where no day follows; animals may have died later. Schedules are NCI's codes, taken here to give the interval after Q, in days (D) or hours (H), and the number of doses after X. Some schedule codes hold Z or #, which are not explained here. Where survival is the endpoint, this PubChem deposit counts one and a half times the control or more as active, and values a quarter to a half above the control carry no call in these data; other NCI protocols may use other cut-offs. Some entries were tested several times; the values are given in rising order.

Test system: L1210 leukemia ip in BDF1 mice, survival T/C
Experiment: NCI In Vivo Anticancer Drug Screen. Data for tumor model L1210 Leukemia (intraperitoneal) in B6D2F1 (BDF1) mice
Conditions: T/C endpoint: mean survival time, higher T/C = longer survival
[1] = dose: 400.0 mg/kg/injection, schedule: Q04DX002 (ip), vehicle: Klucel (hydroxypropylcellulose) (HPC)
[2] = dose: 200.0 mg/kg/injection, schedule: Q01DX009 (ip), vehicle: saline with Tween-80
[3] = dose: 200.0 mg/kg/injection, schedule: Q04DX003 (ip), vehicle: saline with Tween-80
[4] = dose: 400.0 mg/kg/injection, schedule: Q04DX003 (ip), vehicle: saline with Tween-80

In the case of `c1cc2c3c(cccc3c1)-c1nc3ccccc3nc1-2`, the survivor count (dose: 75.0 mg/kg/injection, schedule: Q01DX Z (ip), vehicle: methylcellulose (MC)) is reported as 0 of 6, the survivor count (dose: 160.0 mg/kg/injection, schedule: Q01DX Z (ip), vehicle: methylcellulose (MC)) is reported as 0 of 6 and the survivor count (dose: 240.0 mg/kg/injection, schedule: Q01DX Z (ip), vehicle: methylcellulose (MC)) is reported as 0 of 6. The survivor count (dose: 360.0 mg/kg/injection, schedule: Q01DX Z (ip), vehicle: methylcellulose (MC)) was 0 of 6 and the survivor count (dose: 540.0 mg/kg/injection, schedule: Q01DX Z (ip), vehicle: methylcellulose (MC)) was 0 of 6.

In the case of `N#CCCn1c(=O)n(CCC#N)c(=O)n(CCC#N)c1=O`, the survivor count (dose: 100.0 mg/kg/injection, schedule: Q04DX002 (ip), vehicle: Klucel (hydroxypropylcellulose) (HPC)) is reported as 1 of 3, the survivor count (dose: 200.0 mg/kg/injection, schedule: Q04DX002 (ip), vehicle: Klucel (hydroxypropylcellulose) (HPC)) is reported as 3 of 3 and the survivor count [1] is reported as 3 of 3.

In the case of `Cc1ccccc1-c1nc2c(N)nc(N)nc2nc1N`, the T/C (dose: 101.0 mg/kg/injection, schedule: Q01DX Z (ip), vehicle: carboxymethylcellulose (CMC)) is reported as 126 % of control and the T/C (dose: 202.0 mg/kg/injection, schedule: Q01DX Z (ip), vehicle: carboxymethylcellulose (CMC)) is reported as 127 % of control.

With `C[N+](C)(C)Cc1ccc([N+](=O)[O-])cc1` the survivor count (dose: 50.0 mg/kg/injection, schedule: Q01DX001 (ip), vehicle: saline) was 1 of 4, the survivor count (dose: 100.0 mg/kg/injection, schedule: Q01DX001 (ip), vehicle: saline) was 0 of 4 and the survivor count (dose: 200.0 mg/kg/injection, schedule: Q01DX001 (ip), vehicle: saline) was 0 of 4. The survivor count (dose: 400.0 mg/kg/injection, schedule: Q01DX001 (ip), vehicle: saline) was 0 of 4.

With `Cn1cnc([N+](=O)[O-])c1Sc1ncnc2nc[nH]c12` the T/C (dose: 27.0 mg/kg/injection, schedule: Q01DX Z (ip), vehicle: methylcellulose (MC)) was 127 and 135 % of control, the survivor count (dose: 38.0 mg/kg/injection, schedule: Q01DX Z (ip), vehicle: methylcellulose (MC)) was 3 of 6 and the T/C (dose: 40.0 mg/kg/injection, schedule: Q01DX Z (ip), vehicle: methylcellulose (MC)) was 130 and 135 % of control. For the same molecule, the survivor count (dose: 57.0 mg/kg/injection, schedule: Q01DX Z (ip), vehicle: methylcellulose (MC)) was 2 of 6, the T/C (dose: 60.0 mg/kg/injection, schedule: Q01DX Z (ip), vehicle: methylcellulose (MC)) was 125 % of control and the survivor count (dose: 85.0 mg/kg/injection, schedule: Q01DX Z (ip), vehicle: methylcellulose (MC)) was 4 of 6. For the same molecule, the survivor count (dose: 90.0 mg/kg/injection, schedule: Q01DX Z (ip), vehicle: methylcellulose (MC)) was 5 of 6, the T/C (dose: 125.0 mg/kg/injection, schedule: Q01DX001 (ip), vehicle: carboxymethylcellulose (CMC)) was 129 % of control and the survivor count (dose: 1000.0 mg/kg/injection, schedule: Q01DX001 (ip), vehicle: carboxymethylcellulose (CMC)) was 5 of 6.

In the case of `CC1=NN(c2ccccc2)C(=O)/C1=C\c1ccccc1`, the survivor count (dose: 400.0 mg/kg/injection, schedule: Q01DX009 (ip), vehicle: Klucel (hydroxypropylcellulose) (HPC)) is reported as 4 of 6.

In the case of `CC(C)(C)C1CCC(=O)C1` (stereo not given), the survivor count (dose: 50.0 mg/kg/injection, schedule: Q01DX009 (ip), vehicle: saline with Tween-80) is reported as 0 of 3, the survivor count (dose: 100.0 mg/kg/injection, schedule: Q01DX009 (ip), vehicle: saline with Tween-80) is reported as 0 of 3 and the survivor count [2] is reported as 0 of 3.

For `Cc1cnc(/N=C(\N)N2CCOCC2)nc1-c1ccccc1O`, the survivor count [1] was 0 of 3.

With `NC(=O)Cn1cnc2c(=S)nc[nH]c21` the survivor count (dose: 50.0 mg/kg/injection, schedule: Q04DX003 (ip), vehicle: saline with Tween-80) was 3 of 6, the survivor count (dose: 100.0 mg/kg/injection, schedule: Q04DX003 (ip), vehicle: saline with Tween-80) was 3 of 6 and the survivor count [3] was 1 of 6. The survivor count [4] was 0 of 6.

In the case of `O=C(NS(=O)(=O)c1ccc(Cl)cc1)c1cccc2ccccc12`, the survivor count [2] is reported as 6 of 6 and the survivor count (dose: 400.0 mg/kg/injection, schedule: Q01DX009 (ip), vehicle: saline with Tween-80) is reported as 0 of 6.

In the case of `CC(=O)N(NC(=O)c1cccnc1)C(C)=O`, the survivor count (dose: 500.0 mg/kg/injection, schedule: Q01DX Z (oral), vehicle: carboxymethylcellulose (CMC)) is reported as 0 of 6.

With `O=c1c(O)cccc2cc(O)c(O)c(O)c12` the survivor count (dose: 100.0 mg/kg/injection, schedule: Q01DX009 (ip), vehicle: saline) was 6 of 6.

With `NCCCCCCN` (tested in a mixture with another compound) the survivor count (dose: 12.0 mg/kg/injection, schedule: Q01DX009 (ip), vehicle: acid diluted with saline) was 1 of 6, the survivor count (dose: 100.0 mg/kg/injection, schedule: Q04DX003 (ip), vehicle: acid diluted with saline) was 0 of 6 and the survivor count (dose: 200.0 mg/kg/injection, schedule: Q04DX003 (ip), vehicle: acid diluted with saline) was 0 of 6. For the same molecule, the survivor count (dose: 400.0 mg/kg/injection, schedule: Q04DX003 (ip), vehicle: acid diluted with saline) was 0 of 6.

`CCCCCCCCCCCCC[n+]1ccc(C#N)cc1` was tested, and the survivor count (dose: 75.0 mg/kg/injection, schedule: Q01DX001 (ip), vehicle: saline) was 2 of 6, the survivor count (dose: 150.0 mg/kg/injection, schedule: Q01DX001 (ip), vehicle: saline) was 0 of 6 and the survivor count (dose: 300.0 mg/kg/injection, schedule: Q01DX001 (ip), vehicle: saline) was 0 of 6.

In the case of `CCCOP(=O)(OCCC)C(OC(=O)C(C)C)=C(C)C`, the survivor count [4] is reported as 1 of 6.

In the case of `CC(=O)CC(=O)C(F)(F)F.CC(=O)CC(=O)C(F)(F)F.[Mn]`, the survivor count (dose: 200.0 mg/kg/injection, schedule: Q01DX005 (ip), vehicle: Klucel (hydroxypropylcellulose) (HPC)) is reported as 2 of 3 and the survivor count [1] is reported as 3 of 3.

For `COc1cc(N)c(CC2c3cc(OC)c(OC)cc3CCN2C)cc1OC` (stereo not given), the survivor count (dose: 300.0 mg/kg/injection, schedule: Q01DX001 (ip), vehicle: carboxymethylcellulose (CMC)) was 2 of 6.

`c1ccc(C[As+](c2ccccc2)(c2ccccc2)c2ccccc2)cc1` was tested, and the survivor count (dose: 80.0 mg/kg/injection, schedule: Q01DX001 (ip), vehicle: saline) was 0 of 6, the survivor count (dose: 100.0 mg/kg/injection, schedule: Q04DX002 (ip), vehicle: saline with Tween-80) was 0 of 3 and the survivor count (dose: 200.0 mg/kg/injection, schedule: Q04DX002 (ip), vehicle: saline with Tween-80) was 0 of 3. The survivor count (dose: 400.0 mg/kg/injection, schedule: Q04DX002 (ip), vehicle: saline with Tween-80) was 0 of 3.

In the case of `Cc1ccccc1S(=O)(=O)NC1c2ccccc2Oc2ccccc21`, the survivor count (dose: 150.0 mg/kg/injection, schedule: Q01DX009 (ip), vehicle: saline) is reported as 6 of 6 and the survivor count (dose: 300.0 mg/kg/injection, schedule: Q01DX009 (ip), vehicle: saline) is reported as 6 of 6.

With `O=C(c1ccccc1)C1CSSC1c1ccccc1` (stereo not given) the survivor count (dose: 100.0 mg/kg/injection, schedule: Q04DX003 (ip), vehicle: Klucel (hydroxypropylcellulose) (HPC)) was 2 of 6, the survivor count (dose: 200.0 mg/kg/injection, schedule: Q04DX003 (ip), vehicle: Klucel (hydroxypropylcellulose) (HPC)) was 2 of 6 and the survivor count (dose: 400.0 mg/kg/injection, schedule: Q04DX003 (ip), vehicle: Klucel (hydroxypropylcellulose) (HPC)) was 0 of 6.

With `COc1ccc(NC(=O)CC#N)cc1` the survivor count (dose: 400.0 mg/kg/injection, schedule: Q01DX001 (ip), vehicle: Klucel (hydroxypropylcellulose) (HPC)) was 0 of 6.

In the case of `CCOP1(=O)OCC(C(C)(C)C)CO1` (stereo not given), the survivor count (dose: 100.0 mg/kg/injection, schedule: Q04DX003 (ip), vehicle: carboxymethylcellulose (CMC)) is reported as 0 of 6, the survivor count (dose: 200.0 mg/kg/injection, schedule: Q04DX003 (ip), vehicle: carboxymethylcellulose (CMC)) is reported as 0 of 6 and the survivor count (dose: 400.0 mg/kg/injection, schedule: Q04DX003 (ip), vehicle: carboxymethylcellulose (CMC)) is reported as 0 of 6.

In the case of `Clc1ccc(Cl)c(CBr)c1Cl`, the survivor count [3] is reported as 3 of 6 and the survivor count [4] is reported as 1 of 6.

For `CC/C(=N/Nc1ccc([N+](=O)[O-])cc1[N+](=O)[O-])c1cccs1`, the survivor count (dose: 400.0 mg/kg/injection, schedule: Q01DX001 (ip), vehicle: carboxymethylcellulose (CMC)) was 3 of 4.

`CC(=O)OCCC/C(=C\c1ccc(F)cc1)[N+](=O)[O-]` was tested, and the survivor count (dose: 200.0 mg/kg/injection, schedule: Q01DX001 (ip), vehicle: other) was 2 of 4 and the survivor count (dose: 400.0 mg/kg/injection, schedule: Q01DX001 (ip), vehicle: other) was 0 of 4.
